Measurements taken from article PMC6868236.
No constants are given. Whether binding was seen depends on the method and setting. In cells and extracts the contact can be indirect. These calls come from enrichment with a bait or labelling near it, and not all partners need be listed. For some of these results: A no says only that the protein was not detected with the bait. For some of these results: Tags and fused reporters may be left off the sequences shown.

Protein sequences, listed by entry. Tags and fused reporters are not part of them.
UniProt Q9HFE8: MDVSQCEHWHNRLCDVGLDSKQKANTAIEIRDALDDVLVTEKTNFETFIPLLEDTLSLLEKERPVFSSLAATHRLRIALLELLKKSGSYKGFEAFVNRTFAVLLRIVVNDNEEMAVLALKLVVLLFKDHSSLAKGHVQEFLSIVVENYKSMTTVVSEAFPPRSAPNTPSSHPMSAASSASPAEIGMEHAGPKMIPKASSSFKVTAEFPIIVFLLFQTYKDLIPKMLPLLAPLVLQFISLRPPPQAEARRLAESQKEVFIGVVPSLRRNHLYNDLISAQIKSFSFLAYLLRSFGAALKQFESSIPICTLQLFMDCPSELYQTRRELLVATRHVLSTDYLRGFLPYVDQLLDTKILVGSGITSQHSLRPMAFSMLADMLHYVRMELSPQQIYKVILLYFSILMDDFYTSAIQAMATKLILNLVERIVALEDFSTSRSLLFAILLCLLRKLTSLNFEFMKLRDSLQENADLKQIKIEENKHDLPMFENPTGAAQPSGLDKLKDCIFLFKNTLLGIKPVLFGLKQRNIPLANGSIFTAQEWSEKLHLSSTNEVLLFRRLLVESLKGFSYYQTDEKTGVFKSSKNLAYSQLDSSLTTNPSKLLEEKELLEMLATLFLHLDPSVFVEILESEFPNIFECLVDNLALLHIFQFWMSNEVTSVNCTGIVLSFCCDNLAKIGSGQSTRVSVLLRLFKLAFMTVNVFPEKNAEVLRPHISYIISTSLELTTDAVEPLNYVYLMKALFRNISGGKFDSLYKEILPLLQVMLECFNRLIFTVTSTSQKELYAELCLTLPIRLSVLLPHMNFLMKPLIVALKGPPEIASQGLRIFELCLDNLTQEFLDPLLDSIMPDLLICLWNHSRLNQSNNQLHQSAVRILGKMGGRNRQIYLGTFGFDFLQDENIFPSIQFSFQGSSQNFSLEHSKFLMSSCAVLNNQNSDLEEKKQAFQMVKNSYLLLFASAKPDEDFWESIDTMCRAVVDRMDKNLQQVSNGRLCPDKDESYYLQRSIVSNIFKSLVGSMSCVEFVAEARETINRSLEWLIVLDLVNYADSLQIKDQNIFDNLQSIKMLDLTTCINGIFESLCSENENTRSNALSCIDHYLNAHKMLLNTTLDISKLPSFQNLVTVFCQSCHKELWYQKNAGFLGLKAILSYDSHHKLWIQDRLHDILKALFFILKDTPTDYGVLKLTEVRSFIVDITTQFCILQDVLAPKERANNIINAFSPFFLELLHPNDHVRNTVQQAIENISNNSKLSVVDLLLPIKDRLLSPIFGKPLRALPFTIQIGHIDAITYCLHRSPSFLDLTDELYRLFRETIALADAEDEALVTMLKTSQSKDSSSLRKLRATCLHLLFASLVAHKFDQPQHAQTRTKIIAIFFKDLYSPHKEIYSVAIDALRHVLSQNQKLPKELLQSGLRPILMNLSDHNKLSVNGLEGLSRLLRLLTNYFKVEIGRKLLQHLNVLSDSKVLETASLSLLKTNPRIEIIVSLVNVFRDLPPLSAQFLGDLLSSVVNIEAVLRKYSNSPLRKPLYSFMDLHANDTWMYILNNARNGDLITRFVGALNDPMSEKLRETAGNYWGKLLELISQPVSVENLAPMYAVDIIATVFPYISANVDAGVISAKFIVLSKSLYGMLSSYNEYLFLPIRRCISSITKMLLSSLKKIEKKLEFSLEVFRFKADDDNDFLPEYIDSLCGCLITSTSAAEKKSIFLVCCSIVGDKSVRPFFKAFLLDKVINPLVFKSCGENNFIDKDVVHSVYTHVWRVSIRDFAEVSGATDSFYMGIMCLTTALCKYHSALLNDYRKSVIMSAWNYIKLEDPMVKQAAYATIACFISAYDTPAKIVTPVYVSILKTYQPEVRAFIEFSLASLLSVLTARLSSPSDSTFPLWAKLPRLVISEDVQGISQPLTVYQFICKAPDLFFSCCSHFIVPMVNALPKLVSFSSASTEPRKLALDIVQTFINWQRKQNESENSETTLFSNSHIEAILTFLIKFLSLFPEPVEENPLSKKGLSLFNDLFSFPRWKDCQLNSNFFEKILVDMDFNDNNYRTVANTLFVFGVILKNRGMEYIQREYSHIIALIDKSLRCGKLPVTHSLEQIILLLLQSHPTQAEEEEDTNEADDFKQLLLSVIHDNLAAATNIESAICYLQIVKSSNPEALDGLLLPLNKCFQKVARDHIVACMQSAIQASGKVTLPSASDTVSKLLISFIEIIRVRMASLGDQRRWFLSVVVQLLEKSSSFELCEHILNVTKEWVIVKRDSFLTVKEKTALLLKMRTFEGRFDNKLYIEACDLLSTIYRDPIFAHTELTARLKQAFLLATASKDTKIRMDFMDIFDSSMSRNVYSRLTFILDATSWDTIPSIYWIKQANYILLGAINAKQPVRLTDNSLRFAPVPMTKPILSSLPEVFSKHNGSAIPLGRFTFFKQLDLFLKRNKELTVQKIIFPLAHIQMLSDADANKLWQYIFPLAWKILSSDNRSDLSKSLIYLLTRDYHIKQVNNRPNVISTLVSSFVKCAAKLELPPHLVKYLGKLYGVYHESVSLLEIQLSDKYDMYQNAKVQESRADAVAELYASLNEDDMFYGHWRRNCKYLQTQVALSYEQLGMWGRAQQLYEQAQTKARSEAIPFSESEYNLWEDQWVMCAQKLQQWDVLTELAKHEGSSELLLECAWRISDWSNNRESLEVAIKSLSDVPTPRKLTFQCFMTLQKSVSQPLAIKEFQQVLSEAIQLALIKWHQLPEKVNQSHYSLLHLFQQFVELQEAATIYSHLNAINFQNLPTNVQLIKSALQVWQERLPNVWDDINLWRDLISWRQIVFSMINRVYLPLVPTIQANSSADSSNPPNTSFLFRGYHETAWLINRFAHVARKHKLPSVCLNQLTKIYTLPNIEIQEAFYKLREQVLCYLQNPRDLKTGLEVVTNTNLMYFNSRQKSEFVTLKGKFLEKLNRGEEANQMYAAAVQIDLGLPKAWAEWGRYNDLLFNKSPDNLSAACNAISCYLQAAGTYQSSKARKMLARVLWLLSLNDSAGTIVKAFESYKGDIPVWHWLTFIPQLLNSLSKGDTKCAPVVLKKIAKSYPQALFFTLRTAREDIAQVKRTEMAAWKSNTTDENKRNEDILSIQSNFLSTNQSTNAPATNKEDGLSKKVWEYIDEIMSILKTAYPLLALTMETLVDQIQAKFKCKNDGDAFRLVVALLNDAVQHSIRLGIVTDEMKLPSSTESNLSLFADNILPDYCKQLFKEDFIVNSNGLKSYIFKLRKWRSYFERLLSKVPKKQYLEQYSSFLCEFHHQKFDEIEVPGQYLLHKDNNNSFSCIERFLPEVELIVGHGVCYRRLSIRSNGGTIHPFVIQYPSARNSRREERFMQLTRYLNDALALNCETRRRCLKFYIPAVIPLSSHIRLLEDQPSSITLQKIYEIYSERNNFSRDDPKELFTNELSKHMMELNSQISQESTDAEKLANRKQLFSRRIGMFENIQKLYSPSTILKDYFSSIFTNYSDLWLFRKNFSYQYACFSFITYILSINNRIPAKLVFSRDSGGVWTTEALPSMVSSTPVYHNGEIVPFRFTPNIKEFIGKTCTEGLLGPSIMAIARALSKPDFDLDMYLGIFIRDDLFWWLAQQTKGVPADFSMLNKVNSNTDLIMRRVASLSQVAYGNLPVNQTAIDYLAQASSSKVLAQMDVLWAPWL

Experiments:
[1] = molecular target: T1, Spt20 (S. cerevisiae, wild type) (S. cerevisiae) (UniProt P50875); experiment: affinity purification with mass spectrometry; tandem affinity purification of S. cerevisiae SAGA by HA-Spt7-TAP from WT and spt20 truncation mutants, silver staining and LFQ LC-MS/MS (Tra1 normalised to Spt7)
T1 sequence: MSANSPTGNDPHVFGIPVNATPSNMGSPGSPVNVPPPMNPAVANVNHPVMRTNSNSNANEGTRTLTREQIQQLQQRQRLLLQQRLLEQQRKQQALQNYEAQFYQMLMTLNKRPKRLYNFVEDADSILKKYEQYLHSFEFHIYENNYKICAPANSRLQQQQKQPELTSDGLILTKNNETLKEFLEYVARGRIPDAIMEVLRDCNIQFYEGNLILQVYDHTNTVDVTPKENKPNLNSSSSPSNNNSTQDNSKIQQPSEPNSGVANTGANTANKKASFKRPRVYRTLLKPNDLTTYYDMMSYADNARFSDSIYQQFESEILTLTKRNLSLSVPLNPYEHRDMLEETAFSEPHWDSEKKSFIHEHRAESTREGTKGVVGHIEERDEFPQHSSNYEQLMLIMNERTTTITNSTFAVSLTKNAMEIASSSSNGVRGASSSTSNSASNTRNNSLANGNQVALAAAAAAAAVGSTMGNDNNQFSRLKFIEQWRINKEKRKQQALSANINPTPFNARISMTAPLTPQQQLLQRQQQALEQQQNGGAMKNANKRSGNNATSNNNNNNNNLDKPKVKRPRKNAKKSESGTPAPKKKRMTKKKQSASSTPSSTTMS

[2] = molecular target: T2, Spt20-492 (S. cerevisiae Spt20 truncation, V5-tagged) (S. cerevisiae) (UniProt P50875); experiment: as above
T2 sequence: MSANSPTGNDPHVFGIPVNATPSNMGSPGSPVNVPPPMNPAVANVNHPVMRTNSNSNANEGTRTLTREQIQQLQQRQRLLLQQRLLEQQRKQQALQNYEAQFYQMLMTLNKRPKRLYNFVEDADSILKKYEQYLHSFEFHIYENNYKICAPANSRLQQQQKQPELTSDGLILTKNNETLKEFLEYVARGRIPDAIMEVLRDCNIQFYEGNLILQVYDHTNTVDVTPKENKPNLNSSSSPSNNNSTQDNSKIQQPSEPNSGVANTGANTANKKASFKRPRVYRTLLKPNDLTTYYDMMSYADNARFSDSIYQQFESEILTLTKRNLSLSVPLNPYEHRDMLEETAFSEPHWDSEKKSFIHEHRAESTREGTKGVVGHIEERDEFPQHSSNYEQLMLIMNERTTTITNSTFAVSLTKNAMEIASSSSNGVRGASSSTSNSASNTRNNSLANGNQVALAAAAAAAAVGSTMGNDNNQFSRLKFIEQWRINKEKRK

[3] = molecular target: T3, Spt20-300 (S. pombe Spt20 truncation, residues 301-474 deleted) (S. pombe) (UniProt O14174); experiment: affinity purification with mass spectrometry; tandem affinity purification of SAGA by Spt7-TAP from S. pombe extracts (WEB or CLB buffer), EGTA eluates, silver staining and LFQ LC-MS/MS (prey to bait ratio); wild-type, tra1 hybrid and spt20 mutant strains; also tti2-CKO with DMSO or β-estradiol, RI-tra1, tel2-AID and hsp90 mutant strains
T3 sequence: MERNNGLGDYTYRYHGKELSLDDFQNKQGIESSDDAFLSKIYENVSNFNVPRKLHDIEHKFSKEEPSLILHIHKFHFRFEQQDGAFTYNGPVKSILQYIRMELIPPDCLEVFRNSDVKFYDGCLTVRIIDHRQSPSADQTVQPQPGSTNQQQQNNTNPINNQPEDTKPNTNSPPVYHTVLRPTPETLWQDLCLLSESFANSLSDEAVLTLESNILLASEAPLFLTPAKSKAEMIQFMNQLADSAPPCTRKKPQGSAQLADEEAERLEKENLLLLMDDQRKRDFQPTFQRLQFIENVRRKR

[4] = molecular target: T4, Spt20-290 (S. pombe Spt20 truncation, residues 291-474 deleted) (S. pombe) (UniProt O14174); experiment: as above
T4 sequence: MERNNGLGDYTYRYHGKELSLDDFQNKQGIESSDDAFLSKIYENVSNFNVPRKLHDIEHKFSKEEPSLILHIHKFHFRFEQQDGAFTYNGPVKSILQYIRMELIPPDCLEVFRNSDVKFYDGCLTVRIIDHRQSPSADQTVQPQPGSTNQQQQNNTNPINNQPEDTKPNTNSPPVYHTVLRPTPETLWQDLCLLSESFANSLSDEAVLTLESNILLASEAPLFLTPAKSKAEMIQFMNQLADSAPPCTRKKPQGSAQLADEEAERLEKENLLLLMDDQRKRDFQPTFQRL

[5] = molecular target: T5, Spt20 (S. pombe) (S. pombe) (UniProt O14174); experiment: as above
T5 sequence: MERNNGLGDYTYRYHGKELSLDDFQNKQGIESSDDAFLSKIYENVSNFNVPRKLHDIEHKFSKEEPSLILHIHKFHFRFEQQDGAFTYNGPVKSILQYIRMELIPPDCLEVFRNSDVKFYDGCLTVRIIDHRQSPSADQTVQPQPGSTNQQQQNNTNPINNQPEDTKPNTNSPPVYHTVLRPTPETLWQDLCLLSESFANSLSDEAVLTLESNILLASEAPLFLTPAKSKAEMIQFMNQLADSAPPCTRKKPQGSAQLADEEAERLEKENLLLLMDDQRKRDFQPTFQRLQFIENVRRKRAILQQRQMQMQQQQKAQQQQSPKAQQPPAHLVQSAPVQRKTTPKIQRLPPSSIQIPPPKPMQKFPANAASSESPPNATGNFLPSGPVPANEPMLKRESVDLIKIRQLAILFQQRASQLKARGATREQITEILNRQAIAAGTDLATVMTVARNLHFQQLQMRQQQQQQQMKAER

[6] = molecular target: Spt20-RRKR (S. pombe Spt20 with the four RRKR residues of the HIT region mutated) (S. pombe) (UniProt O14174); experiment: as above
[7] = molecular target: T6, Tti2-TAP (S. pombe) (S. pombe) (UniProt O94729); experiment: affinity purification with mass spectrometry; tandem affinity purification of Tti2 from S. pombe extracts, LC-MS/MS with label-free quantification, TAP against no-TAP samples
T6 sequence: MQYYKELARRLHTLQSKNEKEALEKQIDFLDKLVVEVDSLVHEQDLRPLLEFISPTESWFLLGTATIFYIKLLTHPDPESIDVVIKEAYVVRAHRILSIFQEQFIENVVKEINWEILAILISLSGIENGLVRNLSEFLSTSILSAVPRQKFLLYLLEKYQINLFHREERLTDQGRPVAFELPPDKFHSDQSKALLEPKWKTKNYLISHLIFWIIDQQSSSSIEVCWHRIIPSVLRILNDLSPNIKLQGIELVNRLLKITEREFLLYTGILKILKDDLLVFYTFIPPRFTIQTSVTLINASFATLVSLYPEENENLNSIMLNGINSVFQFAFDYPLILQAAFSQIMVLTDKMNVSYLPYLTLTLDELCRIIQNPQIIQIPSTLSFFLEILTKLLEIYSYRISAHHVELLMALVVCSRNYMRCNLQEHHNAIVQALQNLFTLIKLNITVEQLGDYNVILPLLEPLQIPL

Row | Substance | binding [1] | binding [2] | binding [3] | binding [4] | binding [5] | binding [6] | binding [7]
1 | Tra1 (S. cerevisiae) (from UniProt P38811 1-3744) | binds | binds |  |  |  |  | 
2 | Tra1 (S. pombe) (from UniProt Q9HFE8 1-3661) |  |  | binds | no binding (tested: ND: not detected or <1% of WT) | binds | binds | binds
